Assay [1] addresses full-length MCL1 fused to the GAL4 DNA-binding domain (pAS2.1-MCL1) (UniProt P04386). Kind of assay: yeast two-hybrid library screen, GAL4 DNA-BD-MCL1 bait against a human fetal liver library.
Assay [2] concerns the target p53 (UniProt P04637). Briefly: co-immunoprecipitation with anti-HA antibody (3F10) from lysate of stable U2OS transfectants, Western blot with anti-p53.
The target in assay [3] is p53 (UniProt P04637). Briefly: co-immunoprecipitation of endogenous proteins from U2OS lysate with anti-p53 antibody DO-1, Western blot with anti-fortilin.
The target of assay [4] is p53 (UniProt P04637). Kind of assay: GST pull-down with Glutathione Sepharose 4B, in vitro translated [35S]-labelled p53, fluorography.
Assay [5] concerns the target MCL1 (Myeloid Cell Leukemia 1) (UniProt Q07820). Briefly: GST pull-down with Glutathione Sepharose 4B, in vitro translated [35S]-labelled MCL1, fluorography.

Protein sequences, listed by entry. Tags and fused reporters are not part of them. Lines headed by an entry give the natural chain unless they say otherwise; changes in a name come on top.
UniProt P04386: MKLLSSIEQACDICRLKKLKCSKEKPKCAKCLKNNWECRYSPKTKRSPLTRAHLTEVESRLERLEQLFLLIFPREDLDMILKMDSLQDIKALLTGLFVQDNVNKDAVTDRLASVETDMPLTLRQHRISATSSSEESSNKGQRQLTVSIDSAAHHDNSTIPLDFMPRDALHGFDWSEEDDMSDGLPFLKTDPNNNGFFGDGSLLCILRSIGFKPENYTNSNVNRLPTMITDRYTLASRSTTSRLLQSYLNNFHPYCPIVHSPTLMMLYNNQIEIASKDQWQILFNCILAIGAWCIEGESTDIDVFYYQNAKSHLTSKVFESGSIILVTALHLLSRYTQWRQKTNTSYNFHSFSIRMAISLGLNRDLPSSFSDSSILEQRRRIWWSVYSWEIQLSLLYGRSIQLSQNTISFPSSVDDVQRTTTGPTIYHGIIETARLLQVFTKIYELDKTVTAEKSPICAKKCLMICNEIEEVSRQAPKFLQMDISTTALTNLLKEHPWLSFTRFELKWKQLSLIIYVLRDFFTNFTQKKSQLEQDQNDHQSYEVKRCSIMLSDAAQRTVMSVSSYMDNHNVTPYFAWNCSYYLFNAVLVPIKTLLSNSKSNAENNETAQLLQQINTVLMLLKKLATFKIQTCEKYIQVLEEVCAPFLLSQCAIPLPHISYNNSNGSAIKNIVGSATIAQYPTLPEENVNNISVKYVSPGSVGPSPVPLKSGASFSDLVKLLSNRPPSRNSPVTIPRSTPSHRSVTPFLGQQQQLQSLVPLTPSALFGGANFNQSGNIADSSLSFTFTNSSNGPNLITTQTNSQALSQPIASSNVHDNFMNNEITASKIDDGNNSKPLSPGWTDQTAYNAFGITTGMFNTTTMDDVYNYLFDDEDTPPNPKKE
UniProt Q07820: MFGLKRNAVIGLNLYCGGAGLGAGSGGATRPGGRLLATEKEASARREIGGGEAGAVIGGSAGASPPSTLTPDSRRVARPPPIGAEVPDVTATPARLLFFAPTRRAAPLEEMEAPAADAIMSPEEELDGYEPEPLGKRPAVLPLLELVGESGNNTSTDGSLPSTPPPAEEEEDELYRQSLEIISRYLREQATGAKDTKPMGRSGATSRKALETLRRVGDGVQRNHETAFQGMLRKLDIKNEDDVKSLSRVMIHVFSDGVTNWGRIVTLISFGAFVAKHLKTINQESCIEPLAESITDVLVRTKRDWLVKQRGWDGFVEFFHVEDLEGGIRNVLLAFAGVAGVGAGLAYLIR

These are yes or no findings as the source states them, for the method shown. For some assays here: Binding seen in cells or lysates may run through a third protein. Some results given as binding are weak or reduced against the parent protein; the word gives no strength. For some assays here: Sequences can lack the tags named with a protein.

B1: FL1 (Fortilin amino acids 5-172) fused to the GAL4 DNA-activating domain (protein, not shown: large carriers)
chain: RDLISHDEMFSDIYKIREIADGLCLEVEGKMVSRTEGNIDDSLIGGNASAEGPEGEGTESTVITGVDIVMNHHLQETSFTKEAYKKYIKDYMKSIKGKLEEQRPERVKPFMTGAAEQIKHILANFKNYQFFIGENMNPDGMVALLDYREDGVTPYMIFFKDGLEMEKC
In the case of B1, the binding entry in assay [1] was “binds”.

B2: HA-fortilin stably expressed in U2OS cells (Example 12) (protein, not shown: small tags and cut ends)
chain: MIIYRDLISHDEMFSDIYKIREIADGLCLEVEGKMVSRTEGNIDDSLIGGNASAEGPEGEGTESTVITGVDIVMNHHLQETSFTKEAYKKYIKDYMKSIKGKLEEQRPERVKPFMTGAAEQIKHILANFKNYQFFIGENMNPDGMVALLDYREDGVTPYMIFFKDGLEMEKC
Take B2: the binding result in assay [2] is on record as “binds”.

B3: Fortilin (Translationally Controlled Tumor Protein, TCTP), native (protein)
chain: B2 chain
As for B3, in assay [3], the binding result is “binds”.

B4: recombinant GST-Fortilin (protein, not shown: a dimerising Fc or GST)
chain: B2 chain
B4: the binding result in assay [4] and in assay [5] was “binds” each time.

The values above are taken from patent publication US20030172388A1.
